Like-named read-outs stand apart in the source and are kept apart here.
How the values were obtained:
[1] = Recycling and re-use of the perfluorinated SABRE catalyst for repeated [1-13C]pyruvate hyperpolarization
[2] = 13C polarization of [1-13C]pyruvate after isolation from the catalyst into aqueous medium (precipitation, filtration, evaporation, biphasic extraction); conditions: for pyruvate hyperpolarization after D2O addition, solvent evaporation and filtration: whole procedure about 2 minutes; for Signal enhancement ε in the water phase: 300 μL D2O biphasic extraction from CD3OD/Novec 7100; for P13C in the water phase: after biphasic extraction
[3] = for pyruvate hyperpolarization, initial level: CD3OD/Novec 7100, before purification
[4] = Example 9, FIG. 15: after EtOAc precipitation and reconstitution in water (D2O), 7.5 mM fluorinated catalyst, 50 mM DMSO
[5] = Example 26, FIG. 24: aqueous phase after adding 400 μL D2O to NFBME/MeOD mixture (emulsion formed)
[6] = Example 5, FIG. 6 legend: 30 mM sodium [1-13C]pyruvate, 42 mM PTFSO, 7.8 mM Ir-F-IMes, deuterated methanol, 55 s 50% p-H2, BT=-0.7 μT, 1.88 T

CC(=O)C(=O)O [[1-^13C]pyruvate, sodium [1-^13C]pyruvate]
signal enhancement ε ([1]; Example 26, FIG. 25: catalyst in fluorous mixture re-used 4 days later, 23 mM pyruvate, 47 mM DMSO): ~3090 fold
diminution in [1-13C]pyruvate hyperpolarization in methanol ([1]; Example 36: by the third recycle): 39%
signal enhancement ε after catalyst recycling ([1]; Example 36: second round of polarization with recycled catalyst): ~3090 fold
[1-13C]pyruvate polarization lost ([1]; Example 36: sixth cycle): 60.8%
HP 13C signal after catalyst precipitation with D2O and filtration ([2]; Example 8: Example 4 catalyst, DMSO, CD3OD, 20% D2O, Oasis HLB filter, procedure 1.15-1.30 min, 1.8 T): no HP ^13C signal was observed
P13C [2, 4]: ~2.17%
signal enhancement ε [2, 4]: ~9000 fold
P13C [2, 5]: ~1.68%
signal enhancement ε [2, 5]: ~10800 fold
pyruvate hyperpolarization after D2O addition, solvent evaporation and filtration ([2]; Example 33, FIG. 41: DMSO co-ligand, 5 s vacuum at 80 °C): 2.57%
pyruvate hyperpolarization after D2O addition ([2]; Example 33: 200 μL D2O added, emulsion): 5.9%
pyruvate hyperpolarization after filtration of the emulsion ([2]; Example 33: Oasis HLB filter, whole procedure about 1.30 minutes): 0.34%
pyruvate hyperpolarization after D2O addition, solvent evaporation and filtration ([2]; Example 34, FIG. 42: PTMSO co-ligand): 0.2%
Signal enhancement ε in the water phase ([2]; Example 35, FIG. 44A: DMSO co-ligand): ~39300 fold
Signal enhancement ε in the water phase ([2]; Example 35, FIG. 44B: PTMSO co-ligand): ~25700 fold
P13C in the water phase ([2]; Example 35: DMSO co-ligand): ~6.13%
P13C in the water phase ([2]; Example 35: PTMSO co-ligand): ~4%
Enhancement ε [3, 6]: ~1250
polarization P(13C) [3, 6]: ~0.1%
polarization P(13C) ([3]; Example 5 text: 8 mM fluorinated catalyst (Example 4), 16 mM PTFSO, 30 mM [1-13C]pyruvate, 0.6 mL CD3OD, room temperature, 50% p-H2): ~1%
pyruvate hyperpolarization, initial level ([3]; Example 33: DMSO co-ligand): 13.6%
pyruvate hyperpolarization, initial level ([3]; Example 34: PTMSO co-ligand): 8.3%

From patent US20240216900A1, “SABRE CATALYSTS CONTAINING FLUORINATED CARBON CHAINS FOR DELIVERY OF METAL-FREE MRI CONTRAST AGENTS” (The U.S.A., as represented by the Secretary, Department of …, priority 2022, published 2024)
